Reference: PubChem BioAssay AID686943 (Drosophila RNAi Screening Center, 2013)
Aim: 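Knockdowns that increase or decrease active ERK after insulin receptor stimulation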 (primary screen). Cells: Drosophila S2R+ haemocyte-like cells expressing YFP-tagged ERK (Rolled). Reagents: long dsRNA against Drosophila genes. Conditions: insulin stimulation versus unstimulated cells; dose and duration not given. Read-out: 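Antibody staining for doubly phosphorylated ERK divided by ERK-YFP signal, as plate z-scores, in insulin-treated and untreated cells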. Reading the numbers: replicate 1, z-score of dpERK with insulin and replicate 2, z-score of dpERK with insulin: higher = more active ERK per ERK-YFP after insulin; replicate 1, z-score of dpERK under basal conditions: higher = more basal active ERK per ERK-YFP; replicate 1, z-score of ERK-YFP with insulin: higher = more YFP-tagged ERK signal.
The deposit covers about 23,000 reagents; below is a random part of those that have a named target and a result. 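Extra replicates exist only for a retested subset of genes; insulin dose and duration not given; both raised and lowered dpERK matter.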 The record does not give: the amount of reagent, the time to read-out.

gene,amplicon,"replicate 1, z-score of dpERK with insulin","replicate 2, z-score of dpERK with insulin","replicate 1, z-score of dpERK under basal conditions","replicate 1, z-score of ERK-YFP with insulin"
DnaJ-1,DRSC11145,-2.08,-0.49,1.47,-0.97
CG14246,DRSC14741,1.27,-0.87,-1.11,-0.78
RhoGAP92B,DRSC14507,-0.42,0.55,-0.92,0.23
RhoGAP92B,DRSC15637,-0.15,-0.13,-1.85,-0.11
Cpr65Au,DRSC22738,0.09,0.93,0.61,-0.11
ND-B14.7,DRSC04544,-1.35,-3.58,0.23,0.85
CG32485,DRSC22666,0.34,0.07,-0.18,0.77
CG3982,DRSC10394,-4.32,-4,-2.73,0.02
Vav,DRSC20384,0.15,0.33,-1.19,-0.04
dlg1,DRSC18895,-4.24,-3.56,-1.88,0.73
dlg1,DRSC18896,0.22,-0.01,2.45,0.55
dlg1,DRSC19767,-0.29,-0.22,1.8,-0.16
dlg1,DRSC20324,0.89,0.93,-0.66,0.16
CG12118,DRSC17813,0.49,1.32,1.62,0.31
CG30457,DRSC06661,1.47,0.65,0.36,0.3
CG14106,DRSC10109,-0.17,0.05,-0.95,-0.49
ms(3)76Cc,DRSC11071,1.18,0.7,0.32,-0.16
ms(3)76Cc,DRSC21630,-0.43,-0.11,-0.45,0.53
CG10470,DRSC02061,-0.5,-0.53,0.08,0.36
esn,DRSC05039,-1.15,-0.82,-0.38,-0.35
esn,DRSC06181,-0.84,0,0.21,1.99
esn,DRSC07612,1.97,0.23,0.3,-0.42
Karybeta3,DRSC12355,-0.13,-0.17,4.24,-0.71
Nf1,DRSC16758,0.48,1.04,2.06,-0.21
CG33469,DRSC22900,-0.12,0.37,-0.61,-0.02
CG10062,DRSC05960,0.43,0.19,0.97,0.11
CG10062,DRSC22535,0.8,-4.65,1.21,-0.23
SmD2,DRSC12536,0.87,2.48,0.47,-0.02
Ref1,DRSC12497,-0.13,1.77,-0.54,0.14
Ref1,DRSC22387,1.01,1.99,,-0.17
CG6325,DRSC16020,0.68,0.34,0.16,-0.9
Kebab,DRSC00827,0.28,0.21,-1.12,-0.27
CG32391,DRSC08865,-0.16,-1.53,-0.74,-0.2
CG15861,DRSC04274,0,0.54,-0.73,0.33
px,DRSC04708,-0.24,-0.08,-2.27,0.17
Asciz,DRSC08421,-1.11,-0.11,-0.36,0.55
p,DRSC16560,0.2,0.98,-0.01,0.17
CG7231,DRSC03034,-0.02,0.78,0.56,0.43
Aprt,DRSC08139,-0.11,-1.73,-0.25,-0.45
CG5347,DRSC19942,0.72,0.19,0.36,0.46
ncm,DRSC02179,2.17,1.1,-1.61,-1.56
CG34282,DRSC16298,-0.12,-0.38,0.03,0.09
CG14422,DRSC17919,0.42,2.93,0.05,0.19
CG12708,DRSC19490,0.33,0.25,0.15,-1.03
CG17328,DRSC01927,0.61,0.45,1,-0.08
CG17328,DRSC22448,-0.31,-0.63,-0.08,0.57
CG14644,DRSC12230,0.35,1.16,0.51,-1.09
brv3,DRSC18657,0.5,-0.04,0.11,-0.07
CG11710,DRSC20485,0.12,0.56,0.34,0.11
beat-Vb,DRSC12940,-0.23,-0.01,1.68,-0.4
beat-Vb,DRSC14844,1.56,-0.66,0.36,-0.59
beat-Vb,DRSC14845,-1.92,-0.97,-2.88,-0.14
EMC1,DRSC15455,0.42,0.31,-0.12,1.47
v,DRSC20383,-0.91,-1.73,-1,0.2
larp,DRSC14728,0.46,-0.17,0.19,-0.04
larp,DRSC16984,-0.38,-0.12,0.76,0.93
larp,DRSC21856,-0.09,-5.23,-0.19,1.93
CG18558,DRSC00525,-1.5,-1.11,1.13,0.25
CG18558,DRSC21593,0.58,0.01,-1.01,0.28
CG32032,DRSC08961,-0.68,-1.26,-1.19,1.22
Tpl94D,DRSC13593,2.03,-0.15,0.16,0.37
alrm,DRSC14436,-0.4,-0.05,0.3,-0.06
CG34398,DRSC01052,0.6,1.43,0.95,-1.04
CG34398,DRSC02510,-5.23,-3.51,-2.44,-1.45
CG34398,DRSC02511,-2.6,-1.95,-0.49,-1.27
CG34398,DRSC03228,0.82,0.04,-0.81,0.21
CG33966,DRSC08256,-0.13,-0.6,-0.19,-0.08
Syx4,DRSC18586,0.66,0.56,0.32,-0.02
Mlc2,DRSC16741,0.2,-0.72,0.14,0.33
ath,DRSC02788,0.02,-0.33,0.3,0.25
garz,DRSC07193,0.1,-0.23,-1.06,0
CG42238,DRSC03180,0.21,0.4,-0.65,-0.25
CG32445,DRSC11678,0.59,1.2,0.54,-0.09

12 entries from above, arranged by “replicate 1, z-score of dpERK with insulin”, low to high:
gene,amplicon,"replicate 1, z-score of dpERK with insulin","replicate 2, z-score of dpERK with insulin","replicate 1, z-score of dpERK under basal conditions","replicate 1, z-score of ERK-YFP with insulin"
Asciz,DRSC08421,-1.11,-0.11,-0.36,0.55
px,DRSC04708,-0.24,-0.08,-2.27,0.17
CG32391,DRSC08865,-0.16,-1.53,-0.74,-0.2
Ref1,DRSC12497,-0.13,1.77,-0.54,0.14
Aprt,DRSC08139,-0.11,-1.73,-0.25,-0.45
CG7231,DRSC03034,-0.02,0.78,0.56,0.43
CG15861,DRSC04274,0,0.54,-0.73,0.33
p,DRSC16560,0.2,0.98,-0.01,0.17
Kebab,DRSC00827,0.28,0.21,-1.12,-0.27
CG6325,DRSC16020,0.68,0.34,0.16,-0.9
SmD2,DRSC12536,0.87,2.48,0.47,-0.02
Ref1,DRSC22387,1.01,1.99,,-0.17
